PubChem BioAssay AID686937 – Drosophila RNAi Screening Center, 2013
Assay: 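Genes whose loss weakens secretory pathway function in fly cells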 (primary screen). System: Drosophila S2 cells expressing secreted horseradish peroxidase. Knock-down reagent: long dsRNA against Drosophila genes. Time to read-out: about 5.5 days (5 days dsRNA, then 12 h reporter induction). Treatment: reporter expression induced after 5 days of dsRNA, read 12 h later; inducer not stated. Detection: 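After 5 days of dsRNA and 12 h of reporter induction, medium peroxidase read by chemiluminescence and scored as per-plate z-score; higher values mean more reporter released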. Scale: z-score: higher = more reporter secreted into medium.
The deposit covers about 23,000 reagents; this is an unselected part of those with a known target gene and a result. 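Reduced-secretion tags in replicate 1 do not always agree with the z-scores; no criterion for assigning the tags was given.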 Names joined by + are all predicted targets of the reagent. Not all columns of the deposit are shown. Not stated in the record: the amount of reagent.

For CG15450 (GeneID 33064) [DRSC20522], the values are z-score, replicate 1 = -2.87.
With knock-down of wam (GeneID 42755) [DRSC15171], the screen gave z-score, replicate 1 = 0.25.
For sNPF-R (GeneID 40195) [DRSC10836], the values are z-score, replicate 1 = 0.36.
After knock-down of BomS1 (GeneID 37100) [DRSC22678], the screen gave z-score, replicate 1 = 0.39.
Depletion of sand (GeneID 35777) [DRSC07245] came out at: z-score, replicate 1 = 0.22.
After knock-down of ox (GeneID 45401) [DRSC07520] the results were z-score, replicate 1 = -0.94.
For scaf (GeneID 35505) [DRSC04849] the deposit lists z-score, replicate 1 = 0.2.
After knock-down of CG46491 (GeneID 36929) [DRSC06565] the results were z-score, replicate 1 = 0.52.
Depletion of CG46491 (GeneID 36929) [DRSC06566] gave: z-score, replicate 1 = 0.2.
Knock-down of CG18536 (GeneID 37093) [DRSC06763] resulted in: z-score, replicate 1 = 0.5.
Against CG32299 + CG32298 [DRSC07980], the values are z-score, replicate 1 = -0.82.
Against CG32299 + CG32298 [DRSC22354] the deposit lists z-score, replicate 1 = -0.41.
Against Nmt (GeneID 38909) [DRSC11236], the entry reads z-score, replicate 1 = -0.85.
With knock-down of dbo (GeneID 53556) [DRSC11339] the results were z-score, replicate 1 = 0.4.
Depletion of tsg (GeneID 32160) [DRSC20380] gave: z-score, replicate 1 = 0.4.
Against CG43902 (GeneID 31948) [DRSC17850] the deposit lists z-score, replicate 1 = 0.53.
CG43902 (GeneID 31948) [DRSC17999] gave z-score, replicate 1 = 0.16.
stc (GeneID 34888) [DRSC03620] gave z-score, replicate 1 = 0.37.
CG4382 (GeneID 34279) [DRSC02743] scored z-score, replicate 1 = 0.37.
Silencing of CG7542 (GeneID 39960) [DRSC10868] gave: z-score, replicate 1 = 0.16.
After knock-down of CG18853 (GeneID 246511) [DRSC06795], the record shows z-score, replicate 1 = 0.22.
With knock-down of htt (GeneID 43392) [DRSC16970], the record shows z-score, replicate 1 = 0.26.
slam (GeneID 33890) [DRSC03240] showed z-score, replicate 1 = 0.72.
CG14628 (GeneID 31057) [DRSC18626] scored z-score, replicate 1 = 0.18.
Grd (GeneID 39984) [DRSC11178] showed z-score, replicate 1 = 0.28.
With knock-down of CG32371 (GeneID 317999) [DRSC22209], the screen gave z-score, replicate 1 = -0.07.
For dpr20 (GeneID 38101) [DRSC08265] the deposit lists z-score, replicate 1 = 0.21.
Against CG5194 (GeneID 39037) [DRSC10492] the deposit lists z-score, replicate 1 = 0.24.
With knock-down of wac (GeneID 38044) [DRSC08349] the results were z-score, replicate 1 = 0.57.
With knock-down of Usp1 (GeneID 43462) [DRSC14155] the results were z-score, replicate 1 = 0.52.
With knock-down of Or85f (GeneID 41119) [DRSC16769], the record shows z-score, replicate 1 = 0.4.
CG14177 (retired record) (GeneID 39113) [DRSC10176] scored z-score, replicate 1 = -0.26.
For Cad87A (GeneID 41441) [DRSC16161], the entry reads z-score, replicate 1 = 0.36.
For bwa (GeneID 250736) [DRSC01749], the entry reads z-score, replicate 1 = 0.5.
For bwa (GeneID 250736) [DRSC02310] the deposit lists z-score, replicate 1 = 0.29.
With knock-down of Sgsh (GeneID 42266) [DRSC14771] the results were z-score, replicate 1 = 0.26.
With knock-down of Sap130 (GeneID 39455) [DRSC09680], the record shows z-score, replicate 1 = -0.82.
For CG43307 (GeneID 12798569) [DRSC00893], the values are z-score, replicate 1 = 0.83.
Knock-down of fs(1)N (GeneID 45973) [DRSC18578] resulted in: z-score, replicate 1 = 0.36.
CG8673 (GeneID 34105) [DRSC03105] scored z-score, replicate 1 = 0.26.
Against Lectin-galC1 (GeneID 35216) [DRSC03362] the deposit lists z-score, replicate 1 = 0.31.
With knock-down of Cpr64Ab (GeneID 38509) [DRSC08461], the screen gave z-score, replicate 1 = -0.46.
After knock-down of CG7695 (GeneID 42234) [DRSC16289], the record shows z-score, replicate 1 = 0.26.
With knock-down of ct (GeneID 44540) [DRSC18757], the screen gave z-score, replicate 1 = 0.17.
Knock-down of dlp (GeneID 39596) [DRSC10281] gave: z-score, replicate 1 = -0.46.
Depletion of dlp (GeneID 39596) [DRSC10472] came out at: z-score, replicate 1 = 0.44.
dpr9 (GeneID 2768670) [DRSC14534] showed z-score, replicate 1 = 0.31.
With knock-down of dpr9 (GeneID 2768670) [DRSC14985], the screen gave z-score, replicate 1 = 0.42.
Depletion of dpr9 (GeneID 2768670) [DRSC14986] resulted in: z-score, replicate 1 = 0.75.
After knock-down of ND-B22 (GeneID 34747) [DRSC03193], the screen gave z-score, replicate 1 = -0.52.
After knock-down of CG31265 (GeneID 42068) [DRSC15745] the results were z-score, replicate 1 = 0.3.

Sorted by “z-score, replicate 1” (low to high): some entries from above
CG43902 (GeneID 31948) [DRSC17999] | z-score, replicate 1: 0.16
CG7542 (GeneID 39960) [DRSC10868] | z-score, replicate 1: 0.16
CG18853 (GeneID 246511) [DRSC06795] | z-score, replicate 1: 0.22
stc (GeneID 34888) [DRSC03620] | z-score, replicate 1: 0.37
CG4382 (GeneID 34279) [DRSC02743] | z-score, replicate 1: 0.37
dbo (GeneID 53556) [DRSC11339] | z-score, replicate 1: 0.4
tsg (GeneID 32160) [DRSC20380] | z-score, replicate 1: 0.4
CG43902 (GeneID 31948) [DRSC17850] | z-score, replicate 1: 0.53
